From patent US5270316A, “Condensed purine derivatives” (Kyowa Hakko Kogyo Co., Ltd., priority 1989, dated 1993)
Read-outs that look alike come from different tables or passages of the source.

Assay: Diuretic activity (oral, urine collected for 6 hours)
Assay type: in vivo, rat (Wistar male rats)
Conditions: Rattus norvegicus, 25 mg/kg oral, rats, relative value for control
Experimental: Wistar male rats weighing 150 to 300 g were used after they were fasted for 18 hours. A test compound or saline (control) was orally administered to rats and urine was collected for 6 hours. The test was performed using 3 groups per the test compound, and each group consists of 3 animals. The urine was metered by a measuring cylinder and electrolytes (Na^+ and K^+) in the urine were assayed with a flame photometer (model […] manufactured by Hitachi Ltd.). Parameters in Table 3 are all expressed by relative value for control.

SMILES: NS(=O)(=O)c1cc(C(=O)O)c(NCc2ccco2)cc1Cl [Furosemide, reference compound]
- response vs control in vivo at 25 mg/kg (read-out: Excretion of K+): 57%
- response vs control in vivo at 25 mg/kg (read-out: Excretion of Na+): 64%
